Data as given in PubChem BioAssay AID686938 (Drosophila RNAi Screening Center, 2013)
The screen tested about 23,000 reagents; this is a random part of those with a known target gene and a result. In the full data, 75 (0.33%) are marked active. 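Raw plate signals without normalisation; calls rest on plate z-scores that were not deposited; ratio present for only 364 wells.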 A number with no mark means an inactive call. Reagents against one gene are numbered here. A plus sign joins genes that one reagent is predicted to hit. Not stated in the record: the dose of the treatment.

Screen: 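Looking for CRAC channel components and the factors controlling them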 (primary screen)
Cells: Drosophila S2R+ cells
Reagents: long dsRNA against Drosophila genes, about 0.25 µg dsRNA per well, roughly 10,000 cells
Timing: 5 days of knock-down before the calcium assay
Challenge: thapsigargin (SERCA pump blocker) to empty calcium stores; entry signal taken 4 min after adding it
Detection: 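Duplicate raw fluo-4 intensities per well from a plate reader, at rest and four minutes after thapsigargin emptied calcium stores; entry-to-rest ratio filled for only some wells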
Reading the numbers: calcium entry signal: higher = stronger calcium signal after store depletion; resting calcium signal: higher = higher resting calcium signal
Active means: 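Hit if the duplicate-averaged plate z-score for entry over resting signal is under −3; wells with weak total dye signal (Fmax z < −2) or more than 5 off-targets removed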
Meaning of the calls: active = strongly reduced calcium entry; inactive = no strong reduction

| gene | reagent no. | calcium entry signal, replicate 1 (fluorescence units) | calcium entry signal, replicate 2 (fluorescence units) | resting calcium signal, replicate 1 (fluorescence units) | resting calcium signal, replicate 2 (fluorescence units) |
| --- | --- | --- | --- | --- | --- |
| Shawl (Shaw-like) | 1 | 4.04e7 | 6.00e7 | 1.92e7 | 2.53e7 |
| Shawl (Shaw-like) | 2 | 3.85e7 | 6.29e7 | 1.83e7 | 2.75e7 |
| CG42566 | 1 | 2.90e7 | 6.74e7 | 1.46e7 | 2.83e7 |
| CG32236 | 1 | 3.47e7 | 3.89e7 | 1.52e7 | 1.62e7 |
| Rtc1 | 1 | 2.87e7 | 2.53e7 | 1.75e7 | 1.41e7 |
| fh (frataxin) | 1 | 1.94e7 | 3.62e7 | 1.08e7 | 1.63e7 |
| H (Hairless) | 1 | 3.75e7 | 3.80e7 | 4.70e7 | 1.65e7 |
| Kpc1 (Kip1 ubiquitination-promoting complex subunit 1) | 1 | 3.49e7 | 5.20e7 | 1.49e7 | 2.03e7 |
| TwdlM (TweedleM) | 1 | 1.86e7 | 3.46e7 | 1.24e7 | 1.45e7 |
| CG4617 | 1 | 4.07e7 | 4.18e7 | 1.97e7 | 1.90e7 |
| CG32986 | 1 | 2.09e7 | 3.48e7 | 9.55e6 | 1.52e7 |
| CG2111 | 1 | 3.11e7 | 3.43e7 | 1.53e7 | 1.71e7 |
| Vps36 (Vacuolar protein sorting 36) | 1 | 3.02e7 | 4.58e7 | 1.87e7 | 2.37e7 |
| CG6409 | 1 | 4.33e7 | 3.55e7 | 2.97e7 | 1.77e7 |
| CG6409 | 2 | 3.59e7 | 3.80e7 | 1.70e7 | 2.00e7 |
| Mco3 (Multicopper oxidase 3) | 1 | 3.94e7 | 5.27e7 | 1.90e7 | 2.26e7 |
| Hayan | 1 | 4.61e7 | 4.14e7 | 2.20e7 | 1.79e7 |
| Hayan | 2 | 4.07e7 | 7.03e7 | 1.91e7 | 3.03e7 |
| Sgsh (N-sulfoglucosamine sulfohydrolase) | 1 | 1.57e7 | 2.75e7 | 2.45e7 | 1.20e7 |
| U2af38 (U2 small nuclear riboprotein auxiliary factor 38) | 1 | 1.74e7 | – | 1.31e7 | – |
| CG9270 | 1 | 3.07e7 | – | 1.57e7 | – |
| CG7255 | 1 | 3.76e7 | 4.72e7 | 1.81e7 | 3.39e7 |
| Elp4 (Elongator complex protein 4) | 1 | 1.95e7 | 2.23e7 | 1.09e7 | 1.12e7 |
| Rrp47 (Ribosomal RNA processing 47) | 1 | 2.91e7 | 2.61e7 | 1.49e7 | 1.33e7 |
| Vps39 (Vacuolar protein sorting 39) | 1 | 4.23e7 | 4.10e7 | 1.94e7 | 1.69e7 |
| CG4619 | 1 | 6.26e7 | – | 2.86e7 | – |
| CG9123 | 1 | 1.81e7 | 2.35e7 | 1.05e7 | 1.10e7 |
| Cpr65Ea (Cuticular protein 65Ea) | 1 | 3.52e7 | 4.32e7 | 1.65e7 | 1.89e7 |
| CG5892 | 1 | 2.90e7 | 3.62e7 | 4.08e7 | 1.58e7 |
| Muc30E (Mucin 30E) | 1 | 4.57e7 | 6.86e7 | 2.23e7 | 3.41e7 |
| TfIIA-S (Transcription-factor-IIA-S) | 1 | 3.54e7 | 3.92e7 | 1.72e7 | 1.56e7 |
| CR11386 + CR33222 | 1 | 2.13e7 | 3.99e7 | 1.17e7 | 1.85e7 |
| SppL (Signal peptide peptidase-like) | 1 | 4.55e7 | 6.69e7 | 2.18e7 | 2.88e7 |
| CG33331 + CG33332 | 1 | 3.35e7 | 3.10e7 | 1.92e7 | 1.52e7 |
| CG10948 | 1 | 2.11e7 | 3.19e7 | 1.07e7 | 1.37e7 |
| IKKbeta (I-kappaB kinase beta) | 1 | 3.21e7 | 2.31e7 | 1.52e7 | 1.11e7 |
| Cip4 (Cdc42-interacting protein 4) | 1 | 4.47e7 | 3.52e7 | 2.07e7 | 1.57e7 |
| Cip4 (Cdc42-interacting protein 4) | 2 | 4.43e7 | 3.40e7 | 3.12e7 | 1.49e7 |
| Cip4 (Cdc42-interacting protein 4) | 3 | 2.41e7 | 3.88e7 | 1.26e7 | 1.70e7 |
| Grik | 1 | 5.01e7 | 4.31e7 | 2.40e7 | 1.91e7 |
| Grik | 2 | 3.76e7 | 4.34e7 | 6.52e7 | 1.95e7 |
| CG9328 | 1 | 2.46e7 | – | 1.20e7 | – |
| nudE | 1 | 2.60e7 | 4.27e7 | 1.35e7 | 1.86e7 |
| nudE | 2 | 3.10e7 | 4.58e7 | 1.67e7 | 2.13e7 |
| l(3)mbn (lethal (3) malignant blood neoplasm) | 1 | 2.91e7 | 3.82e7 | 1.39e7 | 1.90e7 |
| tld (tolloid) | 1 | 3.08e7 | 3.91e7 | 1.73e7 | 1.45e7 |
| CG7368 | 1 | 3.26e7 | 3.30e7 | 1.60e7 | 1.45e7 |
| CG7368 | 2 | 3.20e7 | 4.64e7 | 1.56e7 | 2.18e7 |
| CG31086 + CG31323 | 1 | 2.58e7 | 7.10e7 | 1.46e7 | 3.07e7 |
| Ugt35B1 (UDP-glycosyltransferase family 35 member B1) | 1 | 4.46e7 | 4.48e7 | 1.77e7 | 2.00e7 |
| Sgs5bis | 1 | 3.35e7 | 6.95e7 | 1.76e7 | 5.74e7 |
| brm (brahma) | 1 | 5.89e7 (active) | 5.67e7 | 3.58e7 | 3.25e7 |
| Jhedup (Juvenile hormone esterase duplication) | 1 | 4.40e7 | 5.00e7 | 1.89e7 | 2.35e7 |
| ppk30 (pickpocket 30) | 1 | 3.58e7 | 4.19e7 | 1.90e7 | 1.85e7 |
| AIMP2 (aaRS-interacting multifunctional protein 2) | 1 | 3.19e7 | 3.43e7 | 1.45e7 | 2.40e7 |
| Nt5b (5' nucleotidase B) | 1 | 5.20e7 | 5.63e7 | 2.26e7 | 2.15e7 |
| Nt5b (5' nucleotidase B) | 2 | 4.74e7 | 2.82e7 | 2.33e7 | 1.38e7 |
| Nt5b (5' nucleotidase B) | 3 | 4.61e7 | 2.89e7 | 2.33e7 | 1.48e7 |
| Nt5b (5' nucleotidase B) | 4 | 3.30e7 | 4.07e7 | 1.63e7 | 1.82e7 |

Looked up above.
Value for nudE #2 in “resting calcium signal, replicate 2 (fluorescence units)”: 2.13e7
Result of H (Hairless) under “calcium entry signal, replicate 2 (fluorescence units)”: 3.80e7
Under “calcium entry signal, replicate 1 (fluorescence units)”, Nt5b (5' nucleotidase B) #1 shows 5.20e7
Grik #2, resting calcium signal, replicate 1 (fluorescence units) → 6.52e7
For “calcium entry signal, replicate 2 (fluorescence units)”, Nt5b (5' nucleotidase B) #4 has 4.07e7
